Data from paper PMC12583530.
Where a chain is given by its changes, count along the chain named. These are yes or no findings as the source states them, for the method shown. In cells and extracts the contact can be indirect. Some entries that bind do so weakly or less than the wild type.

How the values were obtained:
[1] = biological target: T1, endogenous PGK1 (phosphoglycerate kinase 1) (human (endogenous in SGC7901 and BGC823)) (UniProt P00558); assay: co-IP; endogenous proteins from whole cell lysates (SGC7901, BGC823); lysis buffer 50 mM Tris, 150 mM NaCl, 2 mM EDTA, 0.5% Triton X-100; antibody-conjugated beads at 4 °C overnight; Western blot; for PGK1-ACAT1 also in SGC7901 cells with TRIM8 shRNA or stable TRIM8 overexpression
T1 sequence: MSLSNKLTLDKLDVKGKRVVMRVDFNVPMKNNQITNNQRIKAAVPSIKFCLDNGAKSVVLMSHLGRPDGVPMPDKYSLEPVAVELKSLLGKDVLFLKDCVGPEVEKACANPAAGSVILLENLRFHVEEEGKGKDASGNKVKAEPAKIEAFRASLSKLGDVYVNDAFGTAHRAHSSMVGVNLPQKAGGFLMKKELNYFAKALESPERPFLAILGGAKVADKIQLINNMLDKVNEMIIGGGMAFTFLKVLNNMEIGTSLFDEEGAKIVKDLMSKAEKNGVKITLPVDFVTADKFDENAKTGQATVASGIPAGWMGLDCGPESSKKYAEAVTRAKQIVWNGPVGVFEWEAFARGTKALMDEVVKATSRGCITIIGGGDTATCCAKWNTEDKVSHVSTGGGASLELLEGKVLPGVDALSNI

PGK1 K146R (human) = biological target: T2, PGK1 K146R (human) (UniProt P00558); assay: co-IP; lysates of SGC7901 cells stably overexpressing PGK1 (control or TRIM8 shRNA; PGK1 IP) or transfected with PGK1 WT or K146R in the presence of TRIM8; Western blot for ACAT1
T2 sequence: T1 sequence with K146R

[2] = biological target: T3, PGK1 WT, overexpressed (human) (UniProt P00558); assay: as above
T3 sequence: T1 sequence

binding [1]: binds
binding (PGK1 K146R (human)): no binding
binding [2]: binds
B1: endogenous ACAT1 (enzyme, UniProt P24752 34-427)
chain: VSKPTLKEVVIVSATRTPIGSFLGSLSLLPATKLGSIAIQGAIEKAGIPKEEVKEAYMGNVLQGGEGQAPTRQAVLGAGLPISTPCTTINKVCASGMKAIMMASQSLMCGHQDVMVAGGMESMSNVPYVMNRGSTPYGGVKLEDLIVKDGLTDVYNKIHMGSCAENTAKKLNIARNEQDAYAINSYTRSKAAWEAGKFGNEVIPVTVTVKGQPDVVVKEDEEYKRVDFSKVPKLKTVFQKENGTVTAANASTLNDGAAALVLMTADAAKRLNVTPLARIVAFADAAVEPIDFPIAPVYAASMVLKDVGLKKEDIAMWEVNEAFSLVVLANIKMLEIDPQKVNINGGAVSLGHPIGMSGARIVGHLTHALKQGEYGLASICNGGGGASAMLIQKL
